At least one structure is not confirmed: it was looked up by name or label, or the drawing left a doubt.
Test system: adult rtTA/tet-MYC/tet-NICD cochleae
Assay: Hair cell induction by ad-Atoh1 in Dox-treated adult rtTA/tet-MYC/tet-NICD cochleae
Format: cell-based, mouse
Details: 3-day Dox, ad-Atoh1 infection for 14 days, with vs without rapamycin; for number of regenerated HCs (MYO7A+): sensory epithelium or limbus regions

In the case of `CO[C@H]1C[C@@H]2CC[C@@H](C)[C@@](O)(O2)C(=O)C(=O)N2CCCC[C@H]2C(=O)O[C@H]([C@H](C)C[C@@H]2CC[C@@H](O)[C@H](OC)C2)CC(=O)[C@H](C)/C=C(\C)[C@@H](O)[C@@H](OC)C(=O)[C@H](C)C[C@H](C)/C=C/C=C/C=C/1C` [rapamycin], the “number of EdU+ cells” value (SE and Lib) is reported as “significantly decreased”, the “number of regenerated HCs (MYO7A+)” value is reported as “significantly decreased” and the “number of regenerated HCs (MYO7A+)” value (listed as Rapamycin) is reported as “significantly reduced”.

From US12239651B2, “Treatment of hearing loss” (Massachusetts Eye and Ear Infirmary, priority 2018, dated 2025)
